{"source": "patent US7928063B2", "about": "(Instytut Farmaceutyczny, priority 2001, dated 2011)", "assay": "general procedure: Boc solid-phase peptide synthesis; MBHA resin (4-methylbenzhydrylamine resin, Bachem California or Novabiochem, ca. 0.5 meq./g)", "details": "whole synthesis, scale of the general procedure 3.1 g of MBHA resin (0.49 meq./g)", "note": "Strings that start with PEPTIDE1 are HELM notation: dots part the residues, brackets hold end groups and non-standard residues.", "data": [{"substance": "PEPTIDE1{[Dat].A.D.A.I.F.T.N.S.Y.[hArg].[hArg].V.L.A.Q.L.S.A.[hArg].[hArg].L.L.Q.D.I.[Nle].D.[hArg].[am]}$$$$V2.0", "values": [{"measurement": "crude HPLC purity", "value": 50, "unit": "%"}, {"measurement": "final HPLC purity", "value": 92.3, "unit": "%"}]}]}
